The target of assay [1] is T1, endogenous ARHGAP25 (human (endogenous in neutrophilic granulocytes)) (UniProt P42331).
T1 sequence: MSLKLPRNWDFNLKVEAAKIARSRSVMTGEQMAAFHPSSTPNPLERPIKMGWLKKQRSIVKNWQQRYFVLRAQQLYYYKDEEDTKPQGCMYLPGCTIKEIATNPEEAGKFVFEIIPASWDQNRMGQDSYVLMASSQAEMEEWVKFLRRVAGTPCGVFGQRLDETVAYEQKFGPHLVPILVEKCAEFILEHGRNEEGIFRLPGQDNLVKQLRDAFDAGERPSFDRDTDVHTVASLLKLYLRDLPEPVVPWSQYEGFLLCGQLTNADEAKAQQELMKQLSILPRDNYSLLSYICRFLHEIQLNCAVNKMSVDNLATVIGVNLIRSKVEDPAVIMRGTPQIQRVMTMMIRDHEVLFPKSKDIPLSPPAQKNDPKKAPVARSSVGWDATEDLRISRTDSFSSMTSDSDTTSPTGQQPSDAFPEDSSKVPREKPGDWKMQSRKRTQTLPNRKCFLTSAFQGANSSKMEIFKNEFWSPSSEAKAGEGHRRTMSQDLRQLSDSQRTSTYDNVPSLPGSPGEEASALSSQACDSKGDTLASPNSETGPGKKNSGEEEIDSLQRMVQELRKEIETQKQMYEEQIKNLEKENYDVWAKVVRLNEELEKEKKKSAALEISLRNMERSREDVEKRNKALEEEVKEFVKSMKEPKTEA
Nature of the assay: affinity purification with mass spectrometry; co-immunoprecipitation of endogenous ARHGAP25: magnetic beads coated with polyclonal ARHGAP25 antibody (control: rabbit IgG) incubated with intact total neutrophil lysate, 45 min, 4 °C; washed thrice with PBST; eluates measured by mass spectrometry.

By UniProt entry, the sequences of proteins in these tests, tags left out. Residues count along the entry.
UniProt Q05655: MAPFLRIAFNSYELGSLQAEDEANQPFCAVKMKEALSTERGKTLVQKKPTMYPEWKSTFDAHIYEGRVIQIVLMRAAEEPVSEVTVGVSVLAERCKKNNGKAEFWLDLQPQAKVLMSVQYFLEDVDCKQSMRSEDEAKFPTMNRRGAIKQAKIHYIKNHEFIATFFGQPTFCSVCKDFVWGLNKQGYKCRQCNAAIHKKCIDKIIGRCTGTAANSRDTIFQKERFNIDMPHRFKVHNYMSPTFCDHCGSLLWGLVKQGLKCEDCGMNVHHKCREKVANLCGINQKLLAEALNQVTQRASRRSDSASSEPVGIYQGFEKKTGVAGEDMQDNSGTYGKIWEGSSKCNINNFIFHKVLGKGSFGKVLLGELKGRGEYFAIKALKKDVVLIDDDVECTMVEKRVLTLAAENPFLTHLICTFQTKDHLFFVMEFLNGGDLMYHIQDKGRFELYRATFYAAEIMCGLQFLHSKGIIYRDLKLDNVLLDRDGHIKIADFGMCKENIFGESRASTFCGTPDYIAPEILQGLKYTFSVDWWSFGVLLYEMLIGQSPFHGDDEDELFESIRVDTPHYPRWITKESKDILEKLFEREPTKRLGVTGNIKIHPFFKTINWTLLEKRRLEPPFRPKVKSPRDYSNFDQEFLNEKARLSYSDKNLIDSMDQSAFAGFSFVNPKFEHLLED
UniProt P19878: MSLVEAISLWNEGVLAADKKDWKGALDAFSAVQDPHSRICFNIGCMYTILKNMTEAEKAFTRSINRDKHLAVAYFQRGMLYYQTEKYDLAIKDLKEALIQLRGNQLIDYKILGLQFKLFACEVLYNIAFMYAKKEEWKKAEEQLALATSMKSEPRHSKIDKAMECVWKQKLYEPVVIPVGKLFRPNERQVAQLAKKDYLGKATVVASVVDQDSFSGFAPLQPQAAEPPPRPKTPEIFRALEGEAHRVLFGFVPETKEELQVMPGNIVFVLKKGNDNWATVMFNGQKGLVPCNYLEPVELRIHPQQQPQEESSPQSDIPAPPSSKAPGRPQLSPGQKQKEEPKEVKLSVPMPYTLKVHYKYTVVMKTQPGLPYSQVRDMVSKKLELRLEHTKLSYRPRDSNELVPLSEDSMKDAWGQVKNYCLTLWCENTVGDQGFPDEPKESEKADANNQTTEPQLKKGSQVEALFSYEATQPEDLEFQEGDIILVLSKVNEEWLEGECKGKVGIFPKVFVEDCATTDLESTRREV
UniProt P07237, residues 18-508: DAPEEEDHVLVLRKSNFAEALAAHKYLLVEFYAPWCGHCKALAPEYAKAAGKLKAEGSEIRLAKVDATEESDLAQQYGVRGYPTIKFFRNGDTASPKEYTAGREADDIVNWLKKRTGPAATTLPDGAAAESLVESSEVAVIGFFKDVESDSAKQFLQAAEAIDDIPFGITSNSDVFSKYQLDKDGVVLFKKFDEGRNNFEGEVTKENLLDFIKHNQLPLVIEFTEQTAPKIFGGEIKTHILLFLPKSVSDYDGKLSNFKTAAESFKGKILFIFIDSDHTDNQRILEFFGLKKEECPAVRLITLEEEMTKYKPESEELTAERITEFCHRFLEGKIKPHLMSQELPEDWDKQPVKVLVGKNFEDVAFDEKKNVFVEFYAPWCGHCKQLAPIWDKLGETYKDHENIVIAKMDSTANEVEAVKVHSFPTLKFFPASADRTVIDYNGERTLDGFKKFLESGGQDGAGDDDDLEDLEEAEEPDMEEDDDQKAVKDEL
UniProt P84095: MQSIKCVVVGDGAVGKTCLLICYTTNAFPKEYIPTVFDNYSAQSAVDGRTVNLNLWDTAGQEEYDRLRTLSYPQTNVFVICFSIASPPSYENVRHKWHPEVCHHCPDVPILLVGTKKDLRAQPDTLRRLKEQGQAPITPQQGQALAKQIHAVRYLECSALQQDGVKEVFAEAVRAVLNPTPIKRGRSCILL
UniProt P62258: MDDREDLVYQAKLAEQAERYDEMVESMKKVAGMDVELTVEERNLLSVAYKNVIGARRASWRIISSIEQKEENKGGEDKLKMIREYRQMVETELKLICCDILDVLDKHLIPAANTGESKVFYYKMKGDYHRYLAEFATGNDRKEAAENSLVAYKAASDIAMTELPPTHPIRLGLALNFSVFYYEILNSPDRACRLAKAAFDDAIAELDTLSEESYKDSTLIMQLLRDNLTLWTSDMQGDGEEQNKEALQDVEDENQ
UniProt Q86UX7: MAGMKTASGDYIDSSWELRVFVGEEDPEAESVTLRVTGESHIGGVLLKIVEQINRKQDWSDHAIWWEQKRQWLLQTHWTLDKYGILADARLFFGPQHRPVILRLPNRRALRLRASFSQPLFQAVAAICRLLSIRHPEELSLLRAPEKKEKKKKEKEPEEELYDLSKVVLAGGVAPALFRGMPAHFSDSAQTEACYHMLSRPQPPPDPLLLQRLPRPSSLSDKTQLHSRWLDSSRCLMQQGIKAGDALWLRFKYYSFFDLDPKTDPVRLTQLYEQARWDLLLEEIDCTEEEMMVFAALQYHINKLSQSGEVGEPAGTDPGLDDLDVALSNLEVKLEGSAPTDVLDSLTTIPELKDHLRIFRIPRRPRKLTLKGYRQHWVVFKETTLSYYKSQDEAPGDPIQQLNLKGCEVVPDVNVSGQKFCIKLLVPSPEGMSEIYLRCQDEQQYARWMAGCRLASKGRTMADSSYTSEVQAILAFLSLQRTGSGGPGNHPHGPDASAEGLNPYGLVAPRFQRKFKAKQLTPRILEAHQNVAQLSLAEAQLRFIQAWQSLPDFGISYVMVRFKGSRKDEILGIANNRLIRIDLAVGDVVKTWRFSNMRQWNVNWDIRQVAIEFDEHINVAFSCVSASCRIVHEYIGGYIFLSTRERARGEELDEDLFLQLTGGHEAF
UniProt P63104: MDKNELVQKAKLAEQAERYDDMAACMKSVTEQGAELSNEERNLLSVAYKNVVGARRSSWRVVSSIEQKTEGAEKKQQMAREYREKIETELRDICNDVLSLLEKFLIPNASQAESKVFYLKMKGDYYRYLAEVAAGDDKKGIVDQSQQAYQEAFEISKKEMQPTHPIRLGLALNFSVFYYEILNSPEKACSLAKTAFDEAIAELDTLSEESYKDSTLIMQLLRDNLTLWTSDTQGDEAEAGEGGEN
UniProt P18085: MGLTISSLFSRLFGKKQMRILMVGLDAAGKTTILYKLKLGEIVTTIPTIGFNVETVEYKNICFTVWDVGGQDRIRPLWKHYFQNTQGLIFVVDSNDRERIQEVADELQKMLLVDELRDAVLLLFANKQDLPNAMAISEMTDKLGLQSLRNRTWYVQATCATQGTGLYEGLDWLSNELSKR
UniProt P30153: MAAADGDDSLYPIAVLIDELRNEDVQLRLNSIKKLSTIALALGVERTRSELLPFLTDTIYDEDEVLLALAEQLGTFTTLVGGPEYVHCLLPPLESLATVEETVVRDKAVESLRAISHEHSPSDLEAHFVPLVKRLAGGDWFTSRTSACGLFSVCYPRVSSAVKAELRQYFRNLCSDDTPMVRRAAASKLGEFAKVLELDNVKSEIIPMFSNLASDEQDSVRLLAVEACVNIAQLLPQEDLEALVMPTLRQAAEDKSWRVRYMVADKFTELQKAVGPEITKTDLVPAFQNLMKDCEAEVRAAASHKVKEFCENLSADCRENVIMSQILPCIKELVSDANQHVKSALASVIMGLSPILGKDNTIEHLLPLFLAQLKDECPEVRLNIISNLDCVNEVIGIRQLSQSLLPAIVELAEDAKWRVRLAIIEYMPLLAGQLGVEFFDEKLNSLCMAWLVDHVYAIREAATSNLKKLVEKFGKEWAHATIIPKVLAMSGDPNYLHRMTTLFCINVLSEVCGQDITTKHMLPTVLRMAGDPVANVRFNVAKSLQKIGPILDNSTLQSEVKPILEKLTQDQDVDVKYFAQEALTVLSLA
UniProt P29350: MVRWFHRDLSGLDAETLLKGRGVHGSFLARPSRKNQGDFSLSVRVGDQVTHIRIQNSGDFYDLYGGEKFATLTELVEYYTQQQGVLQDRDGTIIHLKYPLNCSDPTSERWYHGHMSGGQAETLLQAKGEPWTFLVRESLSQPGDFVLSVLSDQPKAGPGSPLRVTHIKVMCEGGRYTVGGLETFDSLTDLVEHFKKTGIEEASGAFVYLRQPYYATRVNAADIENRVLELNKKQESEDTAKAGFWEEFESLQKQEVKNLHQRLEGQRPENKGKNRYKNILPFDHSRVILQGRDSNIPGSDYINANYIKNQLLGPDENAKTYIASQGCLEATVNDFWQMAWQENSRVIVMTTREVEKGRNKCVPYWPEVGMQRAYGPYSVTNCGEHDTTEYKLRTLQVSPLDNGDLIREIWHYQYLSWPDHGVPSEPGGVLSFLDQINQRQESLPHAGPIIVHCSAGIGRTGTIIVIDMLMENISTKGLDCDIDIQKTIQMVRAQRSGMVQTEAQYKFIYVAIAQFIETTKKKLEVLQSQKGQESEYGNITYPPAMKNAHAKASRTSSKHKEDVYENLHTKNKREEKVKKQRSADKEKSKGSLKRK

Assay [2] concerns the target GST-fused recombinant ARHGAP25 (human) (UniProt P42331). Put plainly: affinity purification with mass spectrometry; GST-ARHGAP25 (control: GST) on glutathione agarose beads incubated with intact total lysate of human neutrophilic granulocytes, 45 min, 4 °C; washed thrice with PBST; eluted by boiling in Laemmli buffer; LC-MS/MS, label-free quantification; only the target purified.

Results are given in words; binding and its absence hold for the method and conditions named. Binding seen in cells or lysates may run through a third protein. These calls come from enrichment with a bait or labelling near it, and not all partners need be listed.

For PRKCD (from UniProt Q05655 1-676), the binding result in assay [1] and in assay [2] was “binds” in each case.

As to NCF2 (from UniProt P19878 1-526), the binding result in assay [1] and in assay [2] was “binds” each time.

P4HB (from UniProt P07237 18-508): the binding entry in assay [2] is given as “binds”.

With RHOG (from UniProt P84095 1-191), the binding result in assay [1] and in assay [2] was “binds” in each case.

As to YWHAE (from UniProt P62258 1-255), the binding result in assay [1] and in assay [2] was “binds” throughout.

Turning to FERMT3 (from UniProt Q86UX7 1-667), in assay [2], the binding result was “binds”.

As for YWHAZ (from UniProt P63104 1-245), the binding entry in assay [1] and in assay [2] was “binds” in each case.

Regarding ARF4 (from UniProt P18085 1-180), the binding result in assay [1] and in assay [2] was “binds” throughout.

Consider PPP2R1A (from UniProt P30153 1-589), for which the binding result in assay [1] and in assay [2] was “binds” in each case.

Consider FGR (from UniProt P09769 1-529), for which the binding result in assay [1] and in assay [2] was “binds” in each case.

Regarding PTPN6 (from UniProt P29350 1-595), the binding result in assay [1] and in assay [2] was “binds” in each case.

The values are drawn from PMC11362597.
